Source: PubChem BioAssay AID220 (DTP/NCI, 2004)
The list is a part of this screen's results and no random one: it is rich in T/C values a quarter to a half above the control, in often repeated tests (any T/C) and in doses without a T/C. Other doses and runs of a compound stand elsewhere. T/C: endpoint of the treated group in % of that of the vehicle group. Schedules are NCI's codes, taken here to give the interval after Q, in days (D) or hours (H), and the number of doses after X. Some T/C values are followed by the survivors on the day toxicity was checked, most often the fifth; where none is given, no animal had died by that day. Some doses have a count of surviving animals in place of a T/C: the source files T/C as zero there, which appears to mark a toxic dose or a test without result, not a measured value. Counts of survivors are from the toxicity check (mostly the fifth day) where no day follows; animals may have died later. Brackets with × count equal records among those shown. Some entries hold several experiments; their values stand side by side, smallest first. Positions of bridges follow the written chain, without caps; N, C: chain ends. Non-standard residues stand in square brackets, D forms with d. Residues, ends and D or L forms follow the SMILES beside them. Chains are numbered I, II in the order given. *: point of attachment. Quinoxaline2carbonyl = O=C(c1cnc2ccccc2n1)*; NMeV = CN[CH](C(=O)O)C(C)C; NMeC = CN[CH](CS)C(=O)O

Test system: CD8F1 mice, subcutaneous mammary adenocarcinoma, T/C%
Assay: NCI In Vivo Anticancer Drug Screen. Data for tumor model Mammary Adenocarcinoma CD8F1 (subcutaneous) in CD8F1
Conditions: higher T/C = larger tumour
Procedure: The antitumor activity of compounds was measured in mice bearing transplantable tumors. Survival or tumor size were measured and the results are expressed as the measurement made in the treated group (T) divided by the measurement made in the vehicle treated control group (C). The tumor model used in this assay is Mammary Adenocarcinoma CD8F1 (subcutaneous) in CD8F1

[1] = T/C endpoint: median tumor weight change, dose: 125.0 mg/kg/injection, schedule: Q01DX001 (ip), vehicle: saline with Tween-80

`C/C=C(\C)c1cc(=O)c2c(C)cc3c(c2o1)C(=O)c1c(O)c(C2CC(C)(N(C)C)C(OC(C)=O)C(C)O2)cc(C2CC(N(C)C)C(O)C(C)O2)c1C3=O` (stereo unspecified) was tested, and the survivor count (T/C endpoint: median tumor weight (est.), dose: 1.25 mg/kg/injection, schedule: Q07DX005 (ip), vehicle: saline) was 4 of 10 on day 30, the survivor count (T/C endpoint: median tumor weight (est.), dose: 2.5 mg/kg/injection, schedule: Q07DX005 (ip), vehicle: saline) was 2 of 10 on day 30 and the survivor count (T/C endpoint: median tumor weight (est.), dose: 5.0 mg/kg/injection, schedule: Q07DX005 (ip), vehicle: saline) was 0 of 10 on day 30.

With `CC(C)CCCCCCCCCCCCC(=O)NCC(=O)NC1C(O)C(O)C(Nc2ncnc3nc[nH]c23)OC1C(O)CO` (stereo unspecified) the survivor count (T/C endpoint: median tumor weight (est.), dose: 8.0 mg/kg/injection, schedule: Q07DX005 (ip), vehicle: Klucel (hydroxypropylcellulose) (HPC)) was 5 of 10.

In the case of `CN(N=O)C(=O)N[C@@H](C=O)[C@@H](O)[C@H](O)[C@H](O)CO`, the T/C (T/C endpoint: median tumor weight (est.), dose: 64.0 mg/kg/injection, schedule: Q07DX005 (ip), vehicle: other, evaluated on day 30) is reported as 127 % of control, the T/C (T/C endpoint: median tumor weight (est.), dose: 128.0 mg/kg/injection, schedule: Q07DX005 (ip), vehicle: Klucel (hydroxypropylcellulose) (HPC), evaluated on day 30) is reported as 140 % of control and the T/C (T/C endpoint: median tumor weight (est.), dose: 128.0 mg/kg/injection, schedule: Q07DX005 (ip), vehicle: other, evaluated on day 30) is reported as 149 % of control. For the same compound, the survivor count (T/C endpoint: median tumor weight (est.), dose: 256.0 mg/kg/injection, schedule: Q07DX005 (ip), vehicle: Klucel (hydroxypropylcellulose) (HPC)) was 5 of 10 and the survivor count (T/C endpoint: median tumor weight (est.), dose: 256.0 mg/kg/injection, schedule: Q07DX005 (ip), vehicle: other) was 6 of 10 on day 30.

For `CC1NC(=O)C(NC(=O)c2cnc3ccccc3n2)COC(=O)C(C(C)C)N(C)C(=O)C2CSSCC(C(=O)N(C)C(C(C)C)C(=O)OCC(NC(=O)c3cnc4ccccc4n3)C(=O)NC(C)C(=O)N2C)N(C)C1=O` (stereo unspecified) (I: Quinoxaline2carbonyl-SA[NMeC][NMeV] / II: Quinoxaline2carbonyl-SA[NMeC][NMeV]; ester I:1-II:C, I:C-II:1; disulfide I:3-II:3; configuration not given here), the survivor count (T/C endpoint: median tumor weight change, dose: 800.0 micrograms/kg/injection, schedule: Q01DX001 (ip), vehicle: Klucel (hydroxypropylcellulose) (HPC)) was 0 of 10 on day 28.

With `Cc1cc(N(CC(C)Br)CC(C)Br)ccc1N=Nc1ccccc1C(=O)O` (stereo unspecified) the survivor count (T/C endpoint: median tumor weight (est.), dose: 50.0 mg/kg/injection, schedule: Q07DX005 (ip), vehicle: saline with Tween-80) was 0 of 10 on day 30.

With `CN(C)C=O` the T/C (T/C endpoint: median tumor weight (est.), dose: 200.0 mg/kg/injection, schedule: Q07DX005 (ip), vehicle: saline, evaluated on day 30) was 129 % of control [9 of 10 alive on day 30], the survivor count (T/C endpoint: median tumor weight (est.), dose: 1600.0 mg/kg/injection, schedule: Q07DX005 (ip), vehicle: saline) was 5 of 10 on day 30 and the survivor count (T/C endpoint: median tumor weight (est.), dose: 3200.0 mg/kg/injection, schedule: Q07DX005 (ip), vehicle: saline) was 5 of 10 on day 30.

`NC1=NC(=O)N2CC12` (stereo unspecified) was tested, and the survivor count (T/C endpoint: median tumor weight change, dose: 500.0 mg/kg/injection, schedule: Q01DX001 (ip), vehicle: saline) was 1 of 10 on day 28, the survivor count (T/C endpoint: median tumor weight change, dose: 1000.0 mg/kg/injection, schedule: Q01DX001 (ip), vehicle: saline) was 0 of 10 on day 28 and the survivor count (T/C endpoint: median tumor weight change, dose: 2000.0 mg/kg/injection, schedule: Q01DX001 (ip), vehicle: saline) was 0 of 9 on day 28.

With `O=c1[nH]c(=O)n([C@H]2CCCO2)cc1F` the T/C (T/C endpoint: median tumor weight (est.), dose: 25.0 mg/kg/injection, schedule: Q07DX005 (ip), vehicle: Klucel (hydroxypropylcellulose) (HPC), evaluated on day 30) was 139 % of control [9 of 10 alive], the T/C (T/C endpoint: median tumor weight (est.), dose: 80.0 mg/kg/injection, schedule: Q07DX005 (ip), vehicle: Klucel (hydroxypropylcellulose) (HPC), evaluated on day 30) was 130 % of control and the survivor count (T/C endpoint: median tumor weight (est.), dose: 640.0 mg/kg/injection, schedule: Q07DX005 (ip), vehicle: Klucel (hydroxypropylcellulose) (HPC)) was 5 of 10.

In the case of `NC(=S)c1cn(C2OC(CO)C(O)C2O)c2ncnc(N)c12` (stereo unspecified), the survivor count (T/C endpoint: median tumor weight change, dose: 25.0 mg/kg/injection, schedule: Q01DX001 (ip), vehicle: suspension in saline) is reported as 6 of 10 on day 31 and the survivor count (T/C endpoint: median tumor weight change, dose: 50.0 mg/kg/injection, schedule: Q01DX001 (ip), vehicle: suspension in saline) is reported as 0 of 10 on day 31.

In the case of `O=NN(CCCl)C(=O)NCCCl`, the T/C (T/C endpoint: median tumor weight (est.), dose: 4.0 mg/kg/injection, schedule: Q07DX005 (ip), vehicle: saline with Tween-80, evaluated on day 30) is reported as 130 % of control, the survivor count (T/C endpoint: median tumor weight (est.), dose: 32.0 mg/kg/injection, schedule: Q07DX005 (ip), vehicle: saline with Tween-80) is reported as 2 of 10 on day 30 and the survivor count (T/C endpoint: median tumor weight change, dose: 62.5 mg/kg/injection, schedule: Q01DX001 (ip), vehicle: saline with Tween-80) is reported as 4 of 10 on day 28. The survivor count (T/C endpoint: median tumor weight change, dose: 125.0 mg/kg/injection, schedule: Q01DX001 (ip), vehicle: saline + alcohol) was 2 of 10 on day 30 and the survivor count [1] was 0 of 10 on day 28.

`Nc1nc2c(ncn2C2OC(CO)C(O)C2N)c(=O)[nH]1` (stereo unspecified) was tested, and the T/C (T/C endpoint: median tumor weight (est.), dose: 18.0 mg/kg/injection, schedule: Q07DX005 (ip), vehicle: saline with Tween-80, evaluated on day 30) was 139 % of control.

`CC1(C)N=C(N)N=C(N)N1c1ccc(CCCCc2ccc(S(=O)(=O)F)cc2Cl)c(Cl)c1` was tested, and the survivor count (T/C endpoint: median tumor weight (est.), dose: 25.0 mg/kg/injection, schedule: Q07DX005 (ip), vehicle: other) was 6 of 10 on day 30, the survivor count (T/C endpoint: median tumor weight (est.), dose: 50.0 mg/kg/injection, schedule: Q07DX005 (ip), vehicle: other) was 5 of 10 on day 30 and the survivor count (T/C endpoint: median tumor weight (est.), dose: 100.0 mg/kg/injection, schedule: Q07DX005 (ip), vehicle: other) was 0 of 10 on day 30. For the same compound, the survivor count (T/C endpoint: median tumor weight (est.), dose: 200.0 mg/kg/injection, schedule: Q07DX005 (ip), vehicle: other) was 0 of 10 on day 30, the survivor count (T/C endpoint: median tumor weight change, dose: 400.0 mg/kg/injection, schedule: Q01DX001 (ip), vehicle: saline with Tween-80) was 6 of 10 on day 27 and the survivor count (T/C endpoint: median tumor weight change, dose: 450.0 mg/kg/injection, schedule: Q01DX001 (ip), vehicle: saline with Tween-80) was 5 of 10 on day 35. The survivor count (T/C endpoint: median tumor weight change, dose: 800.0 mg/kg/injection, schedule: Q01DX001 (ip), vehicle: saline with Tween-80) was 1 of 10 on day 27 and the survivor count (T/C endpoint: median tumor weight change, dose: 900.0 mg/kg/injection, schedule: Q01DX001 (ip), vehicle: saline with Tween-80) was 5 of 10 on day 35.

In the case of `O=C(N/N=C\c1cc(Br)cc(Br)c1O)N/N=C/c1cc(Br)cc(Br)c1O`, the T/C (T/C endpoint: median tumor weight (est.), dose: 50.0 mg/kg/injection, schedule: Q07DX005 (ip), vehicle: saline with Tween-80, evaluated on day 30) is reported as 136 % of control and the T/C (T/C endpoint: median tumor weight (est.), dose: 200.0 mg/kg/injection, schedule: Q07DX005 (ip), vehicle: saline with Tween-80, evaluated on day 30) is reported as 128 % of control.

For `O=c1n(CC2CO2)c(=O)n(CC2CO2)c(=O)n1CC1CO1` (stereo unspecified), the survivor count (T/C endpoint: median tumor weight (est.), dose: 100.0 mg/kg/injection, schedule: Q07DX004 (ip), vehicle: saline with Tween-80) was 3 of 10 on day 30, the survivor count (T/C endpoint: median tumor weight (est.), dose: 100.0 mg/kg/injection, schedule: Q07DX005 (ip), vehicle: saline with Tween-80) was 6 of 10 on day 30 and the survivor count (T/C endpoint: median tumor weight (est.), dose: 100.0 mg/kg/injection, schedule: Q07DX005 (ip), vehicle: suspension in saline) was 0 of 10 on day 30 and 6 of 10 on day 30. The survivor count (T/C endpoint: median tumor weight (est.), dose: 200.0 mg/kg/injection, schedule: Q07DX005 (ip), vehicle: suspension in saline) was 0 of 10 on day 30 and 4 of 10 on day 30 and the survivor count (T/C endpoint: median tumor weight (est.), dose: 400.0 mg/kg/injection, schedule: Q07DX005 (ip), vehicle: suspension in saline) was 0 of 10 on day 30 (2×).

`COc1ccc([C@@]23Oc4cc(OC)cc(OC)c4[C@]2(O)[C@H](O)[C@H](C(=O)N(C)C)[C@H]3c2ccccc2)cc1` was tested, and the survivor count (T/C endpoint: median tumor weight change, dose: 20.0 mg/kg/injection, schedule: Q01DX001 (ip), vehicle: Klucel (hydroxypropylcellulose) (HPC)) was 1 of 10 on day 36.

`Cc1cc(=O)n2c3c(c4c(cc13)c(CN(C)C)cc(=O)n4C)OC2` was tested, and the survivor count [1] was 5 of 10 on day 26, the survivor count (T/C endpoint: median tumor weight change, dose: 250.0 mg/kg/injection, schedule: Q01DX001 (ip), vehicle: saline with Tween-80) was 0 of 10 on day 26 and the survivor count (T/C endpoint: median tumor weight change, dose: 500.0 mg/kg/injection, schedule: Q01DX001 (ip), vehicle: saline with Tween-80) was 0 of 10 on day 26.

In the case of `CC[C@]1(O)C[C@H](OC2CC(N(C)C)C(OC3CC(O)C(O)C(C)O3)C(C)O2)c2c(cc3c(c2O)C(=O)c2c(O)ccc(O)c2C3=O)[C@H]1C(=O)OC` (stereo partly specified), the T/C (T/C endpoint: median tumor weight (est.), dose: 2.0 mg/kg/injection, schedule: Q07DX005 (ip), vehicle: Klucel (hydroxypropylcellulose) (HPC), evaluated on day 32) is reported as 136 % of control.

`CCOC(=O)CNC(=O)CCCCSc1ncnc2nc[nH]c12` was tested, and the T/C (T/C endpoint: median tumor weight (est.), dose: 640.0 mg/kg/injection, schedule: Q07DX004 (ip), vehicle: saline, evaluated on day 23) was 140 % of control.

For `COC(=O)[C@@]12OC[C@]34[C@H]([C@@H](O)[C@@H]1O)[C@@]1(C)CC(=O)C(O)=C(C)[C@@H]1C[C@H]3OC(=O)[C@H](OC(=O)/C=C(\C)C(C)C)[C@@H]24`, the survivor count (T/C endpoint: median tumor weight (est.), dose: 2.0 mg/kg/injection, schedule: Q07DX005 (ip), vehicle: saline + alcohol) was 6 of 10 and the survivor count (T/C endpoint: median tumor weight (est.), dose: 4.0 mg/kg/injection, schedule: Q07DX005 (ip), vehicle: saline + alcohol) was 3 of 10.
